PubChem BioAssay AID330 (DTP/NCI, 2004)
The list is a part of this screen's results and no random one: it is rich in T/C values a quarter to a half above the control, in often repeated tests (any T/C) and in doses without a T/C. Further doses and runs are listed elsewhere. T/C is the treated group as % of the vehicle group. Some entries give survivors of the animals treated and no T/C: the source files T/C as zero there, which appears to mark a toxic dose or a test without result, not a measured value. Some doses without a T/C left all or most animals alive at the check, yet need not have been tolerated: the source hardly ever lists a survival T/C far under the control, and the zero likely stands for such cases as well. Survivors were counted at the toxicity check, usually on the fifth day, unless a day is given; later deaths do not show. Schedule codes are those of the source, read here as Q, the interval in days (D) or hours (H), X, the number of doses. For survival time, the PubChem record calls one and a half times the control and up active, and a quarter to a half above the control has no call in these data; cut-offs in other NCI protocols can differ. Some entries hold several experiments; their values stand side by side, smallest first.

Test system: P388 leukemia ip, CD2F1 mice, survival T/C
Test: NCI In Vivo Anticancer Drug Screen. Data for tumor model P388 Leukemia (intraperitoneal) in CD2F1 (CDF1) mice
Conditions: T/C endpoint: median survival time, higher T/C = longer survival
[1] = dose: 60.0 mg/kg/injection, schedule: Q01DX005 (ip), vehicle: saline with Tween-80
[2] = dose: 240.0 mg/kg/injection, schedule: Q01DX005 (ip), vehicle: saline with Tween-80
[3] = dose: 200.0 mg/kg/injection, schedule: Q01DX005 (ip), vehicle: saline with Tween-80
[4] = dose: 50.0 mg/kg/injection, schedule: Q01DX005 (ip), vehicle: saline with Tween-80
[5] = dose: 100.0 mg/kg/injection, schedule: Q01DX005 (ip), vehicle: saline with Tween-80
[6] = dose: 200.0 mg/kg/injection, schedule: Q01DX009 (ip), vehicle: saline with Tween-80
[7] = dose: 240.0 mg/kg/injection, schedule: Q01DX005 (ip), vehicle: saline

O=C1CS(=O)(=O)C(c2ccccc2F)N1N1C(=O)CS(=O)(=O)C1c1ccccc1F (configuration not stated)
survivor count (dose: 30.0 mg/kg/injection, schedule: Q01DX005 (ip), vehicle: saline with Tween-80): 6 of 6 | survivor count [1]: 6 of 6 | survivor count (dose: 120.0 mg/kg/injection, schedule: Q01DX005 (ip), vehicle: saline with Tween-80): 6 of 6 | survivor count [2]: 6 of 6

O=S1(=O)OCCCCO1
survivor count (dose: 50.0 mg/kg/injection, schedule: Q01DX005 (ip), vehicle: saline): 0 of 6 | survivor count (dose: 100.0 mg/kg/injection, schedule: Q01DX005 (ip), vehicle: saline): 0 of 6

Cc1c2cnccc2c(CO)c2[nH]c3ccccc3c12
T/C (dose: 25.0 mg/kg/injection, schedule: Q04DX002 (ip), vehicle: saline with Tween-80): 125 and 128 % of control | T/C (dose: 50.0 mg/kg/injection, schedule: Q04DX002 (ip), vehicle: saline with Tween-80): 133 and 135 % of control | T/C (dose: 100.0 mg/kg/injection, schedule: Q04DX002 (ip), vehicle: saline with Tween-80): 143 % of control

CCCCCNc1ncnc2[nH]ncc12
survivor count [3]: 0 of 5

Cc1ccccc1C(C)C[n+]1cccc(C)c1C (configuration not stated)
survivor count (dose: 25.0 mg/kg/injection, schedule: Q01DX005 (ip), vehicle: saline with Tween-80): 2 of 5 | survivor count [4]: 1 of 5 | survivor count [5]: 0 of 5 | survivor count [3]: 0 of 5

c1ccc2nc(C[n+]3cccc4ccccc43)ccc2c1
survivor count [4]: 0 of 5 | survivor count [5]: 0 of 5 | survivor count [3]: 0 of 5

C[n+]1ccccc1-c1ccc[n+](CCCC[n+]2cccc(-c3cccc[n+]3C)c2)c1
survivor count [2]: 3 of 6

CS(=O)(=O)OCCN(CCOS(C)(=O)=O)c1cccc(Cl)c1
T/C (dose: 5.0 mg/kg/injection, schedule: Q01DX009 (ip), vehicle: other): 140 % of control

[Cl][Pt+2]([Cl])([Cl])[Cl].[Na+].[S-]c1ncnc2nc[nH]c12.[S-]c1ncnc2nc[nH]c12
T/C (dose: 300.0 mg/kg/injection, schedule: Q01DX009 (ip), vehicle: saline with Tween-80): 136 % of control

CCCCCCCC(=O)C1C(c2ccc(C(C)C)cc2)CC(=O)C(CCCCCC)C1c1ccc(C(C)C)cc1 (configuration not stated)
survivor count [4]: 5 of 5

CC(C)=NOc1ccc([N+](=O)[O-])cc1[N+](=O)[O-]
survivor count [6]: 2 of 6

O=S1(=O)C(CCCCC2=Cc3ccccc3S2(=O)=O)=Cc2ccccc21
survivor count [3]: 6 of 6

OCC(O)C[S][Bi]([c]1ccccc1)[c]1ccccc1 (configuration not stated)
survivor count (dose: 240.0 mg/kg/injection, schedule: Q01DX005 (ip), vehicle: Klucel (hydroxypropylcellulose) (HPC)): 0 of 6

OCc1c(CO)c(-c2ccc(Cl)c(Cl)c2)n2c1CCC2
T/C [6]: 131 % of control | T/C (dose: 400.0 mg/kg/injection, schedule: Q01DX009 (ip), vehicle: saline with Tween-80): 127 and 138 % of control

CC(=O)c1ccc2c(c1)N(CCCN1CCN(CCO)CC1)c1ccccc1S2
survivor count (dose: 6.25 mg/kg/injection, schedule: Q01DX009 (ip), vehicle: saline): 6 of 6

N#CCCNCCC[Si]12OCCN(CCO1)CCO2
survivor count (dose: 50.0 mg/kg/injection, schedule: Q01DX005 (ip), vehicle: Klucel (hydroxypropylcellulose) (HPC)): 6 of 6 | survivor count (dose: 100.0 mg/kg/injection, schedule: Q01DX005 (ip), vehicle: Klucel (hydroxypropylcellulose) (HPC)): 6 of 6

COC1=C(OC)C(=O)C(N(C)C)=C(CO)C1=O
T/C [7]: 131 % of control | survivor count [7]: 1 of 6

OC(CCl)CN1CCN(CC(O)CCl)CC1 (configuration not stated)
T/C (dose: 12.5 mg/kg/injection, schedule: Q01DX005 (ip), vehicle: water): 142 % of control | survivor count (dose: 200.0 mg/kg/injection, schedule: Q01DX005 (ip), vehicle: water): 5 of 5

O=c1cc(-c2ccccc2)ss1
survivor count (dose: 400.0 mg/kg/injection, schedule: Q01DX009 (ip), vehicle: other): 3 of 6

[Cu+2].[O-]/N=C/c1cccc(O)c1[O-].[O-]/N=C/c1cccc(O)c1[O-]
survivor count [1]: 0 of 6 | survivor count [2]: 0 of 6

O=c1cc(-c2ccc(OCc3ccccc3)c(-c3c(OCc4ccccc4)cc(OCc4ccccc4)c4c(=O)cc(-c5ccc(OCc6ccccc6)cc5)oc34)c2)oc2cc(OCc3ccccc3)cc(OCc3ccccc3)c12
survivor count (dose: 100.0 mg/kg/injection, schedule: Q01DX001 (ip), vehicle: Klucel (hydroxypropylcellulose) (HPC)): 6 of 6
